The record followed here is publication PMC5386744.

Protein sequences, listed by entry. Tags and fused reporters are not part of them. Residues count along the entry.
UniProt P48023, residues 130-281: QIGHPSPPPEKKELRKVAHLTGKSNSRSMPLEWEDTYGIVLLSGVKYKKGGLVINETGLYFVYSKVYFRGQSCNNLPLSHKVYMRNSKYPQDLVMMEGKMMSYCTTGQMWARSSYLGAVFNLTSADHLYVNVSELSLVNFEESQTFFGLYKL
UniProt P25445, residues 26-335: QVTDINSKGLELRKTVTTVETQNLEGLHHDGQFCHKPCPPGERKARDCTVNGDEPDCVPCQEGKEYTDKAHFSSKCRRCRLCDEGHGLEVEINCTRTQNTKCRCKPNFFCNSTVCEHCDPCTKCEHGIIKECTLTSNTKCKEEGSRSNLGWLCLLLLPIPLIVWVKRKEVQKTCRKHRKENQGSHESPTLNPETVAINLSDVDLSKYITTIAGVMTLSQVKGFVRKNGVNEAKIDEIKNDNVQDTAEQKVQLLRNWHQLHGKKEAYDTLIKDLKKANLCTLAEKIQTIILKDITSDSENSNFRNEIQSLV
UniProt Q14790: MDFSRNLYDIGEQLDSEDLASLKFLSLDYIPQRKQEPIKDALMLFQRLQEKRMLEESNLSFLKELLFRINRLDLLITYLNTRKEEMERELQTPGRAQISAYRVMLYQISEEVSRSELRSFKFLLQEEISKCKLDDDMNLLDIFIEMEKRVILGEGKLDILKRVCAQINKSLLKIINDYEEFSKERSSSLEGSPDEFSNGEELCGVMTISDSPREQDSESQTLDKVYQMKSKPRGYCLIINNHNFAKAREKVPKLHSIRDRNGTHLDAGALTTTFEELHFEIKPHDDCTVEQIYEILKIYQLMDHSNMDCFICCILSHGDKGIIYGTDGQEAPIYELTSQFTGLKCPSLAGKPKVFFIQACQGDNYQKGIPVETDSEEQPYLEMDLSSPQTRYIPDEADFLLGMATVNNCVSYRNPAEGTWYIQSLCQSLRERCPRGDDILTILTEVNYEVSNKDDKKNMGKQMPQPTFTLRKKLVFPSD

Results are given in words; binding and its absence hold for the method and conditions named. For part of these data: In cells and extracts the contact can be indirect. Some entries that bind do so weakly or less than the wild type.

In assay [1] the target is Strep-, Fc- and FLAG-tagged CD95 ligand (UniProt P48023). The assay can be described thus: immunomagnetic isolation of CD95-receptosomes (membrane fractions); SKW6.4 cells labelled on ice with 500 ng Fc-tagged CD95L and protein-G microbeads, shifted to 37°C for various times, sonicated in 0.25 M sucrose buffer without detergent; magnetic fractions separated in a free-flow magnetic chamber and blotted for CD95; only the target purified.

Assay [2] addresses T1, Acid sphingomyelinase (human (endogenous in HeLa)) (UniProt P17405).
T1 sequence: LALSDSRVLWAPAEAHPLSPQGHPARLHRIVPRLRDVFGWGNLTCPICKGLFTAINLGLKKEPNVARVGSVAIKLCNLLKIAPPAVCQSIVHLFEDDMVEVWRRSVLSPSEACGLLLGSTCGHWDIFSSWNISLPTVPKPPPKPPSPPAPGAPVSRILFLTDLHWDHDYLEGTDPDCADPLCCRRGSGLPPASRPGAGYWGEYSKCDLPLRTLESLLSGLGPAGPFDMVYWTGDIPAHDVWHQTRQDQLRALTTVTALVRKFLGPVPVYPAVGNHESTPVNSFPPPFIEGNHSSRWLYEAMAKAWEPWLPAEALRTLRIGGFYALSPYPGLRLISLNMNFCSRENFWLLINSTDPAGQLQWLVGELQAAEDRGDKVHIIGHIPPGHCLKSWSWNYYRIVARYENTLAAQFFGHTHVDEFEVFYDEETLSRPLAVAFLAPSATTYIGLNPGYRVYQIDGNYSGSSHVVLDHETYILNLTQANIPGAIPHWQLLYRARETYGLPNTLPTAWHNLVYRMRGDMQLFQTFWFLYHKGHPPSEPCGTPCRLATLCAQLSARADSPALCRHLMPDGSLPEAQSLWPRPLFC
The assay can be described thus: co-IP; anti-A-SMase antibody coupled to protein G microbeads, µMacs column; lysates of HeLa cells unstimulated or stimulated with 100 ng/mL SFF-CD95L; homogenisation buffer 40 mM HEPES pH 7.4, 150 mM KCl, 0.2% NP40; 1 hour at 4°C; Western blot for caspases. A general note: Immunoblotting shows a protein as a band on a membrane.

With “CD95 (from UniProt P25445 26-335) (receptor)”, the binding result in assay [1] is listed as “binds”. With “Pro-caspase-8 (from UniProt Q14790 1-479) (enzyme)”, the binding result in assay [2] was “binds”.

B1: Pro-caspase-7 (enzyme, UniProt P55210 1-303)
chain: MADDQGCIEEQGVEDSANEDSVDAKPDRSSFVPSLFSKKKKNVTMRSIKTTRDRVPTYQYNMNFEKLGKCIIINNKNFDKVTGMGVRNGTDKDAEALFKCFRSLGFDVIVYNDCSCAKMQDLLKKASEEDHTNAACFACILLSHGEENVIYGKDGVTPIKDLTAHFRGDRCKTLLEKPKLFFIQACRGTELDDGIQADSGPINDTDANPRYKIPVEADFLFAYSTVPGYYSWRSPGRGSWFVQALCSILEEHGKDLEIMQILTRVNDRVARHFESQSDDPHFHEKKQIPCVVSMLTKELYFSQ
As to B1, the binding entry in assay [2] is given as “binds”.
